# Source: article PMC11065421, “An RNA-dependent and phase-separated active subnuclear compartment safeguards repressive chromatin domains” (Molecular Cell, 2024)
# Chains of the proteins cited; added tags and fusions are not shown. Lines headed by an entry give the natural chain unless they say otherwise; changes in a name come on top.
# UniProt Q91YE5: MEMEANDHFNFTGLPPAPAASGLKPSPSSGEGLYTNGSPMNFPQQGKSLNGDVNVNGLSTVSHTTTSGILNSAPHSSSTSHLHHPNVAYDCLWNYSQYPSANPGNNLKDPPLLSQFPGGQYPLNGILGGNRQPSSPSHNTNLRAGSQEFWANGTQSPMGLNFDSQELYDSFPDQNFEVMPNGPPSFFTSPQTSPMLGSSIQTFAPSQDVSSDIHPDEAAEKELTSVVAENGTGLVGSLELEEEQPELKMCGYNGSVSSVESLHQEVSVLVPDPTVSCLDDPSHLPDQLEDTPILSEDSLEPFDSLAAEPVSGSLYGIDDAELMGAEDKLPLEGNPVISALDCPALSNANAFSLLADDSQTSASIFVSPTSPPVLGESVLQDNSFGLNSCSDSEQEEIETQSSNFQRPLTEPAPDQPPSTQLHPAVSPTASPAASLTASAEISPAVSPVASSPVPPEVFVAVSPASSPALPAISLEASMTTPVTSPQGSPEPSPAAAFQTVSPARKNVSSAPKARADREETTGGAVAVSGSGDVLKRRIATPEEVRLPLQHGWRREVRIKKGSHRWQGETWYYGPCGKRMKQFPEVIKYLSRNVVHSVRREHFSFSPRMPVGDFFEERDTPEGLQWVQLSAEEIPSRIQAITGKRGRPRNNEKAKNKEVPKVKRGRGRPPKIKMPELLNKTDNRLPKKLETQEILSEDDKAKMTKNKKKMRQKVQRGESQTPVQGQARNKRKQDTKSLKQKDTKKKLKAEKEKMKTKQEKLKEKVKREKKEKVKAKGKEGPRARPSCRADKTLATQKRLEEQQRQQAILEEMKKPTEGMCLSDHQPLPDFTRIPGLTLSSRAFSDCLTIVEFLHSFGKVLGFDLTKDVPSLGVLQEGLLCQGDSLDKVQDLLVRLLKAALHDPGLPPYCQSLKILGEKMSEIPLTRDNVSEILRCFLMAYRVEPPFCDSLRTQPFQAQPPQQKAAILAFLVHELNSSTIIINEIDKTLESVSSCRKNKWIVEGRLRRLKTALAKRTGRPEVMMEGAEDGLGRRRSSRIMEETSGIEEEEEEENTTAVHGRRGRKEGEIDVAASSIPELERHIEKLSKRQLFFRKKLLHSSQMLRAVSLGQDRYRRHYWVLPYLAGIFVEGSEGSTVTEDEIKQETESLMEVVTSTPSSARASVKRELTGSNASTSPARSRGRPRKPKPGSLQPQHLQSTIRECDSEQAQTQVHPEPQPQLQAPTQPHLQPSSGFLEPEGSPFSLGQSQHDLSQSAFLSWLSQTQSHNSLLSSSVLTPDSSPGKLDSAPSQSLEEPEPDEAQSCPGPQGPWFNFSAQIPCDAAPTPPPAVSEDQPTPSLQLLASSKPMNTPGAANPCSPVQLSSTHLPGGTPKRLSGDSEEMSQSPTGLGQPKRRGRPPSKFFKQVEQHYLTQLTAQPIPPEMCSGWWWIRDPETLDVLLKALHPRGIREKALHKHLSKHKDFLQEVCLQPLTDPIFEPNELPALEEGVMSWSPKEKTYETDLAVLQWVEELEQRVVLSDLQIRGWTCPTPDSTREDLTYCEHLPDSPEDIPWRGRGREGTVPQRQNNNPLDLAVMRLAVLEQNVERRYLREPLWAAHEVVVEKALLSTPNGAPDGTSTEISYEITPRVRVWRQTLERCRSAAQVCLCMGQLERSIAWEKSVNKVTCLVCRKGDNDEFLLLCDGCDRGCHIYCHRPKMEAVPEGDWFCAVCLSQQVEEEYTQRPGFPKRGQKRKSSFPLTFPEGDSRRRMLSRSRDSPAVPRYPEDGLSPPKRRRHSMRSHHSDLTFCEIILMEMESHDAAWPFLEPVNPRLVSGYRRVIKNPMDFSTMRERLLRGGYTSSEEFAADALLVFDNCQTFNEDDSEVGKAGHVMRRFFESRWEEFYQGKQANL
# Results are given in words; binding and its absence hold for the method and conditions named. In cells and extracts the contact can be indirect. A result given as binding can be weak or reduced; the word gives no strength.
# Molecular target: mGFP-BAZ2A_(ΔTAM) (UniProt Q91YE5)
# Assay: co-IP; GFP-Trap magnetic agarose on MNase-digested nuclear extract (200 mM NaCl) of ESC lines, overnight at 4°C; BAZ2A detected with BAZ2A antibodies
substance,measurement,value
endogenous BAZ2A (from UniProt Q91YE5 1-1889),binding,binds
